We go through one molecule from PMC8410842, “Heimdallarchaea encodes profilin with eukaryotic-like actin regulation and polyproline binding” (Communications Biology, 2021).

These are yes or no findings as the source states them, for the method shown. Binding can be weak; no strength is given.

The target in assay [1] is ΔN-thorProfilin (Thorarchaeota (isolate Tekir-14)). The assay is described as follows: NMR titration; 1H-15N TROSY-HSQC; fixed thorProfilin or ΔN-thorProfilin (200 μM), increasing polyproline … (0, 5, 7 mM in the legend); 25 mM Tris-HCl pH 6.8, 150 mM NaCl; KD from fits of chemical shifts of a few residues; both purified.
Assay [2] has as its target ΔN-heimProfilin (Candidatus Heimdallarchaeota archaeon LC_3). The assay is described as follows: NMR titration; 1H-15N TROSY-HSQC; fixed heimProfilin (200 μM) or ΔN-heimProfilin (400 μM), increasing polyproline … (to 3300 or 4300 μM); 25 mM Tris-HCl pH 7.5, 50 mM NaCl, 5% glycerol; 298 K; both purified.
Assay [3] addresses Heimdallarchaeota LC3 profilin (heimProfilin) (Candidatus Heimdallarchaeota archaeon LC_3). The description is as above.

For the molecule PPPAPPLPAAQ [polyproline from VASP (…)], the binding entry in assay [1] was “binds”; in assay [2] it was “binds”; in assay [3], “binds weakly”.
